Measurements published in the supplement of paper PMC10849652.
The list shows a part of the results.

Sequences of proteins named here, by UniProt entry; tags and fusion partners are left off. A change or cut given only in a name is not applied to a line headed by its entry.
UniProt P50579: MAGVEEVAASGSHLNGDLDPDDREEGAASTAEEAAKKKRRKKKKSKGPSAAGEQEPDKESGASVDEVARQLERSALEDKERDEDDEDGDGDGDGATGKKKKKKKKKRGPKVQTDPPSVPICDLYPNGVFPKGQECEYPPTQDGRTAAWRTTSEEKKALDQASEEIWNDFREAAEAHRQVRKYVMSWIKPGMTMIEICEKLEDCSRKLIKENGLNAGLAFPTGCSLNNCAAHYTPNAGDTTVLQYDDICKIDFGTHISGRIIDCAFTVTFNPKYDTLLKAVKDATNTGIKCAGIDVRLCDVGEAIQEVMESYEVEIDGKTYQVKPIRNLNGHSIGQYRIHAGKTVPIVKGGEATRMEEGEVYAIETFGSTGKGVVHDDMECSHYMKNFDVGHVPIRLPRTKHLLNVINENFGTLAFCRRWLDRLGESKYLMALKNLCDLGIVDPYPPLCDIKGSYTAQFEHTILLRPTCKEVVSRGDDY
UniProt P08582: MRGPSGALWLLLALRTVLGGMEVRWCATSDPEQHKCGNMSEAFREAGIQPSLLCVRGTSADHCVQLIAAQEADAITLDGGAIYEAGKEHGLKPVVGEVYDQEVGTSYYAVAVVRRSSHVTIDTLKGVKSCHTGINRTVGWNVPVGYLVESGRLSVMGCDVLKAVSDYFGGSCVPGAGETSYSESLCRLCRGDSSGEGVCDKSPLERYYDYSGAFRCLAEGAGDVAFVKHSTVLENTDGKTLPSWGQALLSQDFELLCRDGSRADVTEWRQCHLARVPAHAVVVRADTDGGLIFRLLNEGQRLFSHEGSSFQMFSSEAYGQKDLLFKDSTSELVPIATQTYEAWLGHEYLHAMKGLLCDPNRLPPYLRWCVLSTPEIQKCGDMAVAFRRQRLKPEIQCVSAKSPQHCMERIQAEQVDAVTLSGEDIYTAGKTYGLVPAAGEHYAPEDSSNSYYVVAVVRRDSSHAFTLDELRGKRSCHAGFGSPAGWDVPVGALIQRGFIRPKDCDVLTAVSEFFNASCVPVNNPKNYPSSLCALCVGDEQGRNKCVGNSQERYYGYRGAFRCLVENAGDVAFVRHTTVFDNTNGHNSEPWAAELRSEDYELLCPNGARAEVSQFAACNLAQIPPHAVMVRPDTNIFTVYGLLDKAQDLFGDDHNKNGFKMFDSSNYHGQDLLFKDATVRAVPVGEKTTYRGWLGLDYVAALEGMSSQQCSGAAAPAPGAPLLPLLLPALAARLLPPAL
UniProt Q9GZU1, whole entry, looked up: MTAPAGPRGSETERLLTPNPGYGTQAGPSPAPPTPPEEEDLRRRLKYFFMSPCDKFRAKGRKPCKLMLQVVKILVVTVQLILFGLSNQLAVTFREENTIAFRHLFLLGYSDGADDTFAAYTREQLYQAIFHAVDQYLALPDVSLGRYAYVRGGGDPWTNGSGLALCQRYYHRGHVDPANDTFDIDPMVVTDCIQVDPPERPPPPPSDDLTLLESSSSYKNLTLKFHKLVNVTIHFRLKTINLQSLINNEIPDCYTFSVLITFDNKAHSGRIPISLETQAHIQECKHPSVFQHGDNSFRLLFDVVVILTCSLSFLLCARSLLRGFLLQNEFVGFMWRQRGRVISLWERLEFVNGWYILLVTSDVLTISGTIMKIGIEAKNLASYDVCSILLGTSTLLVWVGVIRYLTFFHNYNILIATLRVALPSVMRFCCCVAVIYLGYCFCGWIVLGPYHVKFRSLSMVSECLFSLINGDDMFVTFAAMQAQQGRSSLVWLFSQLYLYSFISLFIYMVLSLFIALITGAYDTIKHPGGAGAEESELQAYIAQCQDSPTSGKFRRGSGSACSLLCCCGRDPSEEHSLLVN
UniProt Q6NUT3: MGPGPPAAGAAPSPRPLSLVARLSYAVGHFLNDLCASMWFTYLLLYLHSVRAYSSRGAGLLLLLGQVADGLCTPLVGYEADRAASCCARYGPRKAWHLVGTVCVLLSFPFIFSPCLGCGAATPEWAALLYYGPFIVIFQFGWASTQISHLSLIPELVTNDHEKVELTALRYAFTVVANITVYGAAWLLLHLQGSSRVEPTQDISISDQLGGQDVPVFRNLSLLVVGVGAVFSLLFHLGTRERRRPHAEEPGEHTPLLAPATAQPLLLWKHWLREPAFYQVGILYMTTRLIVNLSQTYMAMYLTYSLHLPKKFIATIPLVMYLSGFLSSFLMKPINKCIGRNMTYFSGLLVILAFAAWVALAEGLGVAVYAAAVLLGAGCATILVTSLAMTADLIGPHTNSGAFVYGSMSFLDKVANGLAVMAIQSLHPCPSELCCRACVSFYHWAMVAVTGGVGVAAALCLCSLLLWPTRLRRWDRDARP
UniProt P55082: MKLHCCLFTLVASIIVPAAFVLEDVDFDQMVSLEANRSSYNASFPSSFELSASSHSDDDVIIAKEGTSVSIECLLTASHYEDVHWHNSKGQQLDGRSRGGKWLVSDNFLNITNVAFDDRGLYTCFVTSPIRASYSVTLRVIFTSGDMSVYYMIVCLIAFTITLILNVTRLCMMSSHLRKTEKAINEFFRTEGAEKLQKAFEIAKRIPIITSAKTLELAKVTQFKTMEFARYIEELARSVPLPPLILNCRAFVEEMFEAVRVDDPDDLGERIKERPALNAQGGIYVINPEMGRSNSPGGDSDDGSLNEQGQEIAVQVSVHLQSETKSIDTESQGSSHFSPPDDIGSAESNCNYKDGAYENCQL
UniProt O95568: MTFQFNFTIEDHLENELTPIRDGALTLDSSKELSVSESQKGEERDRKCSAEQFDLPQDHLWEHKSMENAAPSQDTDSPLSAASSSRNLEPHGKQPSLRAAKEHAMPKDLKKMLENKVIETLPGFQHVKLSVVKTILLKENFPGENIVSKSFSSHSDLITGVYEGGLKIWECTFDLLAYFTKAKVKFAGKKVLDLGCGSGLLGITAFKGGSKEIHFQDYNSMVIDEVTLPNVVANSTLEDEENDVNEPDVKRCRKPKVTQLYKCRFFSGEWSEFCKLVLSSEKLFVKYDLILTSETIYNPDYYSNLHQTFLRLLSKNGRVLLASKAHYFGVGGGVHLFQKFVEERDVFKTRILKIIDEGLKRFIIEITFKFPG
UniProt Q6P2C8: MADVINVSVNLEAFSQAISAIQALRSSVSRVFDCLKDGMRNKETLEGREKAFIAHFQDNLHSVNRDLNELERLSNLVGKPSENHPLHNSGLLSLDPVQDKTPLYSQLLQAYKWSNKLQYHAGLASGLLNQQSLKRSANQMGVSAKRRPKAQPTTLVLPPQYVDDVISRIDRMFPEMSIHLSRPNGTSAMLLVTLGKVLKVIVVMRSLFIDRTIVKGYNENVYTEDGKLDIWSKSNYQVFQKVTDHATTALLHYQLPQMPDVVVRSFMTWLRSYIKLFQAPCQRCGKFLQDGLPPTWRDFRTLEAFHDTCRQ
UniProt Q14728: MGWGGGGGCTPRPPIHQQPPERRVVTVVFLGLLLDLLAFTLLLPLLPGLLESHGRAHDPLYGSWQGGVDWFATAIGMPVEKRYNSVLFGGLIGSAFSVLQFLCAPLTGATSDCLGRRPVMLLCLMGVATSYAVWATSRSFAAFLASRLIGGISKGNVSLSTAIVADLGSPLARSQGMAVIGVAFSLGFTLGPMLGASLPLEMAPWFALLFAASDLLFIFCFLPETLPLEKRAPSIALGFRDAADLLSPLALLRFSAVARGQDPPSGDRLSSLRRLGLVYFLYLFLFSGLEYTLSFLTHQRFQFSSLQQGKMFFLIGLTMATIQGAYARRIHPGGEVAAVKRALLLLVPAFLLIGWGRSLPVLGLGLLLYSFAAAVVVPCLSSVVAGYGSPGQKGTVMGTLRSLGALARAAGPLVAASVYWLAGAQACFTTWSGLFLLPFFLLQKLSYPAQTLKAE
UniProt Q96RN5: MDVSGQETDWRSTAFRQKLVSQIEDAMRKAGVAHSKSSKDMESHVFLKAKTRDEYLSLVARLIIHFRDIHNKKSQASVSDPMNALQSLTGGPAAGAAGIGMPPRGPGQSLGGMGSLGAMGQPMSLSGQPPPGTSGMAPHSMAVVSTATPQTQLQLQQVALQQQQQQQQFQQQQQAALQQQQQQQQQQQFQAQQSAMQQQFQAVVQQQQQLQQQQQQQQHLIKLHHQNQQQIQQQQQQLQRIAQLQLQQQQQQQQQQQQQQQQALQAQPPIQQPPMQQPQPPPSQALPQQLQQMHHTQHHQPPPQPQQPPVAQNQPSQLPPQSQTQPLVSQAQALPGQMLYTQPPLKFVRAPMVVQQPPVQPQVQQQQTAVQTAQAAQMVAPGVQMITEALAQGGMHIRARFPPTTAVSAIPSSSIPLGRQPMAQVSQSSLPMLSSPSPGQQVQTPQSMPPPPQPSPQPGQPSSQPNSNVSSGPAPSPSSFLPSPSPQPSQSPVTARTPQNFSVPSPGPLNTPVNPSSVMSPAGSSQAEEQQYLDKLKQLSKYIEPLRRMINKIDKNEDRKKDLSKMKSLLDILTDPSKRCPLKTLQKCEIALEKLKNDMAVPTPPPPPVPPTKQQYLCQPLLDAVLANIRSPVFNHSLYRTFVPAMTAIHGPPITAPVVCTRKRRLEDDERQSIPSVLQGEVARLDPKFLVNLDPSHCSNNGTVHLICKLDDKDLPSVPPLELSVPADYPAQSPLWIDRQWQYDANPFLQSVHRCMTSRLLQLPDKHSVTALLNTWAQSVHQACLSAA
UniProt Q9NVC6: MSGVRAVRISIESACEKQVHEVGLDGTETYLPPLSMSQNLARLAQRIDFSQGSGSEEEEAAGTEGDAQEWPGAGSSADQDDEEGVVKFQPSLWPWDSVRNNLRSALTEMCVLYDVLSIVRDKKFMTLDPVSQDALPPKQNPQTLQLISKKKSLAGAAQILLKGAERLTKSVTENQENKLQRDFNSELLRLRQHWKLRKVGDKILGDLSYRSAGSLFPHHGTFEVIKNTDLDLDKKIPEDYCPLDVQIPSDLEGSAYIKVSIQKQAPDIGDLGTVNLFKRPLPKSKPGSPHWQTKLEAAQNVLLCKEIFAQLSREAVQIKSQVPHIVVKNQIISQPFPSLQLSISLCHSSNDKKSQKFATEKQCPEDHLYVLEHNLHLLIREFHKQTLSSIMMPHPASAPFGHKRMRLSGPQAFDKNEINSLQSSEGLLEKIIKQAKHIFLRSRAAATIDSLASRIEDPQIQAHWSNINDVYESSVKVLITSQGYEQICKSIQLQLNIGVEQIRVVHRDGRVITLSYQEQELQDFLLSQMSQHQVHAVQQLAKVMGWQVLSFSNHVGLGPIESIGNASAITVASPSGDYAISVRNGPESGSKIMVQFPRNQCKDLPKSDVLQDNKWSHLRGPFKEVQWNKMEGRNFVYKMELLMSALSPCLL
UniProt Q9ULK4: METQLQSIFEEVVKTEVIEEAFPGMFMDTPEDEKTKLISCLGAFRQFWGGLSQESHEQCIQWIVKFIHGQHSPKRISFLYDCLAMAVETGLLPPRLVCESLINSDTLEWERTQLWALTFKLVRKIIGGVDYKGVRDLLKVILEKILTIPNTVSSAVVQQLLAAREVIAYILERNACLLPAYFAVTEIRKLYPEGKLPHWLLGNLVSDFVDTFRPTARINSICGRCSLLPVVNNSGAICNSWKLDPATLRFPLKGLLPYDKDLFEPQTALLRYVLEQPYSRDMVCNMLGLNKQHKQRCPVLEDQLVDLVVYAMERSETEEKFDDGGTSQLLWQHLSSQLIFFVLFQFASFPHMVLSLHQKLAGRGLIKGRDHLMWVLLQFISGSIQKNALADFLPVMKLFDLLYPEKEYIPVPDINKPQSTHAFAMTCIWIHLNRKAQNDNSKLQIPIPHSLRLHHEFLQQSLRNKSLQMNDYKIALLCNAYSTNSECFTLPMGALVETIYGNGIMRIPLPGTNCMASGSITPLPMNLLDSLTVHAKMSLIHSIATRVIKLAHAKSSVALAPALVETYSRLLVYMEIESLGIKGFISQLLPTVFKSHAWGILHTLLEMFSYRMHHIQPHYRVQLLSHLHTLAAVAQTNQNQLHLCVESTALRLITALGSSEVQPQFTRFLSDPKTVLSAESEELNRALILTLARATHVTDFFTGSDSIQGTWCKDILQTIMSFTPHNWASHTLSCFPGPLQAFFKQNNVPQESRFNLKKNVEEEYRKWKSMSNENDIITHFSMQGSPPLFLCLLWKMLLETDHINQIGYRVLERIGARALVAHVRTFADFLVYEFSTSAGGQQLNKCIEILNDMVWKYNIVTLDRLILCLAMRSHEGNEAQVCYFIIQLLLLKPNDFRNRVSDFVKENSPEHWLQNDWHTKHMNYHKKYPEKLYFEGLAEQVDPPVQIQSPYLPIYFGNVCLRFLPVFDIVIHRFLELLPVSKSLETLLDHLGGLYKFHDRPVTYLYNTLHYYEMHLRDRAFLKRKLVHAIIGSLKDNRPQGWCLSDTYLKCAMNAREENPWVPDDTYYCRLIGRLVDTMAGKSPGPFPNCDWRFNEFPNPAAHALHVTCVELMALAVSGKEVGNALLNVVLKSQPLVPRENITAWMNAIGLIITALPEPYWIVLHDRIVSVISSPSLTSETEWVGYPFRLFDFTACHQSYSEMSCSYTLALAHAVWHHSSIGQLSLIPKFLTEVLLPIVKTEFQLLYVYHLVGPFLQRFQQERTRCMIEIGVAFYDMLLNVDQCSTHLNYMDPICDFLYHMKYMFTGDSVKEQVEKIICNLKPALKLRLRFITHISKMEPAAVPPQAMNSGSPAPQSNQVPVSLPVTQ

Assays:
Test in all cases: log2 fold change, soluble protein after heating vs DMSO (PISA); higher = thermal stabilisation; K562 lysate, 10 uM; active = over 0.2 and 3.5 SD of the protein, either way, in both replicates (recomputed)
[1] = compound: NCC(=O)Nc1ccc(-n2nc(C(F)(F)F)cc2-c2ccc3c(ccc4ccccc43)c2)cc1
Method in brief: (§1)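 A 30 min treatment with 10 μM compound was applied to crude K562 extract at 1 mg/mL protein in PBS pH 7.4 with 1 mM MgCl2. Heating for 3 min spanned 48°C-58°C, after which aliquots were pooled, adjusted to 0.5% NP-40 at 4°C and spun at 21,000xg for 90 min. TMTpro 16plex LC-MS/MS of the supernatant, with channel sums equalised, gave values recorded as log-two fold change in thermal stability against solvent controls, from duplicates.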

vorinostat = compound: O=C(CCCCCCC(=O)Nc1ccccc1)NO [vorinostat]
Method in brief: as §1

silmitasertib = compound: O=C(O)c1ccc2c(c1)nc(Nc1cccc(Cl)c1)c1ccncc12 [silmitasertib]
Method in brief: as §1

[2] = compound: O=C1NC(=O)C(c2cnc3ccccn23)=C1c1cn2c3c(cc(F)cc13)CN(C(=O)N1CCCCC1)CC2
Method in brief: as §1

entospletinib = compound: c1cn2cc(-c3ccc4cn[nH]c4c3)nc(Nc3ccc(N4CCOCC4)cc3)c2n1 [entospletinib]
Method in brief: as §1

Measured: log2 fold change

MFF isoform 2 (UniProt Q9GZY8)
inactive: [1] 0.003 | vorinostat 0.17 | silmitasertib -0.048 | [2] 0.029 | entospletinib -0.055

MDM2 isoform 11 (UniProt Q00987)
inactive: [1] -0.137 | vorinostat -0.062 | silmitasertib 0 | [2] -0.039

MCM2 (UniProt P49736)
inactive: [1] 0.022 | vorinostat -0.114 | silmitasertib 0.015 | [2] -0.006 | entospletinib 0.021

MEF2A isoform 2 (UniProt Q02078)
inactive: [1] -0.003 | vorinostat -0.049 | silmitasertib 0.065 | [2] -0.12

MBOAT1 (UniProt Q6ZNC8)
inactive: [1] 0.126 | vorinostat 0.251 | silmitasertib -0.177 | [2] 0.041 | entospletinib -0.081

MCM4 (UniProt P33991)
inactive: [1] 0.019 | vorinostat -0.02 | silmitasertib 0.079 | [2] 0.012 | entospletinib 0.012

MED11 (UniProt Q9P086)
inactive: [1] -0.292 | vorinostat -0.202 | silmitasertib 0.057 | [2] 0.111

METAP2 (UniProt P50579)
inactive: [1] 0 | vorinostat 0.097 | silmitasertib 0.012 | [2] 0.033 | entospletinib 0.014

ME3 (UniProt Q16798)
inactive: [1] -0.037 | vorinostat 0.034 | silmitasertib -0.03 | [2] -0.041 | entospletinib -0.01

Taken from above (2 entries):
METAP2 (UniProt P50579)
inactive: [1] 0 | vorinostat 0.097 | silmitasertib 0.012 | [2] 0.033 | entospletinib 0.014

ME3 (UniProt Q16798)
inactive: [1] -0.037 | vorinostat 0.034 | silmitasertib -0.03 | [2] -0.041 | entospletinib -0.01

Next part:

MEAF6 isoform 3 (UniProt Q9HAF1)
inactive: [1] 0.01 | vorinostat 0.083 | silmitasertib -0.027 | [2] -0.004 | entospletinib 0

MEX3A (UniProt A1L020)
inactive: [1] -0.106

MELTF (UniProt P08582)
inactive: [1] 0.025 | vorinostat 0.033 | silmitasertib -0.079 | [2] -0.33 | entospletinib -0.013

MCOLN1 (UniProt Q9GZU1)
inactive: [1] -0.108 | vorinostat 0 | silmitasertib -0.175 | [2] 0.138

MFSD12 isoform 3 (UniProt Q6NUT3)
inactive: [1] 0.051 | vorinostat 0.077 | silmitasertib -0.065 | [2] 0.046

MFAP3 (UniProt P55082)
inactive: [1] -0.048 | vorinostat -0.075 | silmitasertib -0.058 | [2] -0.091

MELK (UniProt Q14680)
inactive: [1] 0.049 | vorinostat -0.349 | silmitasertib 0.366 | [2] -0.012 | entospletinib 0.119

MFAP1 (UniProt P55081)
inactive: [1] -0.008 | vorinostat 0.173 | silmitasertib -0.043 | [2] 0.024 | entospletinib 0.024

METTL18 (UniProt O95568)
inactive: [1] -0.012 | vorinostat 0.025 | silmitasertib 0 | [2] -0.014 | entospletinib -0.164

MED10 (UniProt Q9BTT4)
inactive: [1] -0.001 | vorinostat -0.04 | silmitasertib -0.085 | [2] 0.021
active: entospletinib -0.349

MFN1 (UniProt Q8IWA4)
inactive: [1] -0.064 | vorinostat -0.277 | silmitasertib 0.004 | [2] -0.035 | entospletinib 0.027

MFHAS1 (UniProt Q9Y4C4)
inactive: [1] 0.058 | vorinostat 0.135 | silmitasertib -0.008 | [2] 0.021

MCM3AP (UniProt O60318)
inactive: [1] -0.073 | vorinostat -0.087 | silmitasertib -0.069

MCRS1 isoform 2 (UniProt Q96EZ8)
inactive: [1] 0.021

MBTPS1 (UniProt Q14703)
inactive: [1] 0.17 | vorinostat 0.116 | silmitasertib -0.023 | [2] -0.044 | entospletinib 0.094

MCFD2 (UniProt Q8NI22)
inactive: [1] -0.023 | vorinostat 0.358 | silmitasertib -0.196 | [2] 0.029 | entospletinib -0.059

MEAK7 (UniProt Q6P9B6)
inactive: [1] -0.008 | vorinostat -0.174 | silmitasertib 0.018 | [2] 0.015 | entospletinib -0.002

MCM10 (UniProt Q7L590)
inactive: [1] 0.014 | vorinostat -0.189 | silmitasertib 0.127 | [2] 0.023

MED27 (UniProt Q6P2C8)
inactive: [1] 0.068 | vorinostat -0.093 | silmitasertib -0.005 | [2] -0.044 | entospletinib 0

MFSD1 isoform 6 (UniProt Q9H3U5)
inactive: [1] -0.08 | vorinostat -0.08 | silmitasertib 0.098 | [2] -0.002 | entospletinib 0.026

METAP1D (UniProt Q6UB28)
inactive: [1] 0.002 | vorinostat 0.221 | silmitasertib -0.09 | [2] -0.01 | entospletinib 0.027

MFSD10 (UniProt Q14728)
inactive: [1] 0.013 | vorinostat 0.02 | silmitasertib 0.049 | [2] 0.017 | entospletinib -0.095

MAX (UniProt P61244)
inactive: [1] 0.032 | vorinostat 0.066 | silmitasertib 0.048 | [2] 0.01 | entospletinib -0.013

MED8 isoform 2 (UniProt Q96G25)
inactive: [1] 0.019 | vorinostat 0.037 | silmitasertib -0.012 | [2] -0.026 | entospletinib 0

MED15 (UniProt Q96RN5)
inactive: [1] -0.024 | vorinostat 0.052 | silmitasertib -0.031 | [2] 0.001 | entospletinib 0.018

MED17 (UniProt Q9NVC6)
inactive: [1] -0.051 | silmitasertib -0.008 | [2] -0.006 | entospletinib 0.083
active: vorinostat -0.392

MFSD8 (UniProt Q8NHS3)
inactive: [1] 0.02 | vorinostat 0.067 | silmitasertib -0.106 | [2] 0.018

MED13 (UniProt Q9UHV7)
inactive: [1] -0.034 | vorinostat -0.173 | silmitasertib 0.019 | [2] -0.017 | entospletinib -0.034

MED22 isoform 2 (UniProt Q15528)
inactive: [1] -0.017 | vorinostat -0.049 | silmitasertib -0.006 | [2] 0.009 | entospletinib -0.09

MCM3 isoform 2 (UniProt P25205)
inactive: [1] -0.017 | vorinostat -0.161 | silmitasertib 0.033 | [2] 0.008 | entospletinib 0.017

MFN2 (UniProt O95140)
inactive: [1] -0.01 | vorinostat -0.221 | silmitasertib 0.013 | [2] 0 | entospletinib 0.004

MCRIP1 (UniProt I3L4Q0)
inactive: [1] -0.033 | vorinostat 0.137 | silmitasertib -0.012 | [2] -0.073 | entospletinib -0.034

MEF2A (UniProt Q02078)
inactive: [1] 0.014 | vorinostat 0.134 | silmitasertib 0.015 | [2] -0.008 | entospletinib 0

MBD3 (UniProt O95983)
inactive: [1] -0.061 | vorinostat -0.115 | silmitasertib -0.027 | [2] 0.017 | entospletinib -0.003

MAU2 (UniProt Q9Y6X3)
inactive: [1] -0.007 | vorinostat -0.06 | silmitasertib 0.026 | [2] 0.035 | entospletinib 0.03

MBNL2 (UniProt Q5VZF2)
inactive: [1] -0.004 | vorinostat -0.053 | silmitasertib -0.063 | [2] 0.01 | entospletinib -0.032

METAP1 (UniProt P53582)
inactive: [1] 0.014 | vorinostat 0.187 | silmitasertib -0.024 | [2] -0.013 | entospletinib -0.004

MED13L (UniProt Q71F56)
active: vorinostat -0.253
inactive: [1] -0.057 | silmitasertib 0.017 | [2] 0.017 | entospletinib -0.052

METTL26 (UniProt Q96S19)
inactive: [1] 0.097 | vorinostat -0.01 | silmitasertib 0.03 | [2] 0.074 | entospletinib 0.019

MFGE8 (UniProt Q08431)
inactive: [1] -0.036 | vorinostat 0.087 | silmitasertib -0.008 | [2] 0.037 | entospletinib -0.025

MCM5 (UniProt P33992)
inactive: [1] -0.026 | vorinostat -0.101 | silmitasertib 0.044 | [2] -0.012 | entospletinib 0

Reprinted at random: 2 entries already listed
MFGE8 (UniProt Q08431)
inactive: [1] -0.036 | vorinostat 0.087 | silmitasertib -0.008 | [2] 0.037 | entospletinib -0.025

MCM5 (UniProt P33992)
inactive: [1] -0.026 | vorinostat -0.101 | silmitasertib 0.044 | [2] -0.012 | entospletinib 0

(continued)

MDN1 (UniProt Q9NU22)
inactive: [1] 0 | vorinostat -0.175 | silmitasertib 0.025 | [2] -0.003 | entospletinib -0.017

MBLAC2 (UniProt Q68D91)
inactive: [1] -0.1 | vorinostat 0.084 | silmitasertib -0.015 | [2] -0.074 | entospletinib -0.011

MED23 (UniProt Q9ULK4)
inactive: [1] 0.017 | vorinostat -0.265 | silmitasertib 0.069 | [2] -0.001 | entospletinib 0.014

MED20 (UniProt Q9H944)
inactive: [1] -0.03 | vorinostat -0.088 | silmitasertib -0.061 | [2] -0.014 | entospletinib -0.064

METTL2A (UniProt Q96IZ6)
inactive: [1] 0.033 | silmitasertib -0.005 | [2] 0.058 | entospletinib -0.003
active: vorinostat -0.28

MCAM (UniProt P43121)
inactive: [1] 0.046 | vorinostat 0.138 | silmitasertib -0.011 | [2] -0.022 | entospletinib 0.008
